# Measurements reported in article PMC1868043.
# These are yes or no findings as the source states them, for the method shown. Binding seen in cells or lysates may run through a third protein. Some entries that bind do so weakly or less than the wild type. Tags and fused reporters may be left off the sequences shown.
# T1: GST-ZNF608 (aa 1-600) (human) (UniProt Q9ULD9)
# T1 sequence: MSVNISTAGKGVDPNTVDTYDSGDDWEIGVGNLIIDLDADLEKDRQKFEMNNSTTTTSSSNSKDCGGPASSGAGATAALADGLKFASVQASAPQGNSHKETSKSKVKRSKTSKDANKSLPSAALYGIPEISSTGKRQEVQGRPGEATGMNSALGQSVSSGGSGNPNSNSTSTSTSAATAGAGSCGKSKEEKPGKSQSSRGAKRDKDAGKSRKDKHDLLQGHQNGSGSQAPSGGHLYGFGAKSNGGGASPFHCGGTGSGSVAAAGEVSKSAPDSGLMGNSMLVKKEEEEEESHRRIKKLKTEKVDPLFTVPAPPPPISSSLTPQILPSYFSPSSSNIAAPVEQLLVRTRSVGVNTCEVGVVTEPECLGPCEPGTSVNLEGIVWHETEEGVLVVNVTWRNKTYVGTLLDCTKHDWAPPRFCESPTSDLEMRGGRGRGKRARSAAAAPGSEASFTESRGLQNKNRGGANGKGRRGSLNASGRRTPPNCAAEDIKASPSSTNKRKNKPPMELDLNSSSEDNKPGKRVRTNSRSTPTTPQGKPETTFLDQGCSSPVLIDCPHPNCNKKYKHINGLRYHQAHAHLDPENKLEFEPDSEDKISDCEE
# B1: human Atrophin-1 aa 600-1191 (domain or fragment, UniProt P54259 600-1190)
# chain: PFPPVPTVTTSSATLSTVIATVASSPAGYKTASPPGPPPYGKRAPSPGAYKTATPPGYKPGSPPSFRTGTPPGYRGTSPPAGPGTFKPGSPTVGPGPLPPAGPSGLPSLPPPPAAPASGPPLSATQIKQEPAEEYETPESPVPPARSPSPPPKVVDVPSHASQSARFNKHLDRGFNSCARSDLYFVPLEGSKLAKKRADLVEKVRREAEQRAREEKEREREREREKEREREKERELERSVKLAQEGRAPVECPSLGPVPHRPPFEPGSAVATVPPYLGPDTPALRTLSEYARPHVMSPGNRNHPFYVPLGAVDPGLLGYNVPALYSSDPAAREREREARERDLRDRLKPGFEVKPSELEPLHGVPGPGLDPFPRHGGLALQPGPPGLHPFPFHPSLGPLERERLALAAGPALRPDMSYAERLAAERQHAERVAALGNDPLARLQMLNVTPHHHQHSHIHSHLHLHQQDAIHAASASVHPLIDPLASGSHLTRIPYPAGTLPNPLLPHPLHENEVLRHQLFAAPYRDLPASLSAPMSAAHQLQAMHAQSAELQRLALEQQQWLHAHHPLHSVPLPAQEDYYSHLKKESDKPL
# modifications: radiolabeled
# Target: T1, GST-ZNF608 (aa 1-600) (human)
# Test: pull-down; GST-ZNF608 (aa 1-600) mixed with radiolabeled C-terminus of human Atrophin-1 (Figure 5H); only the target purified
binder,measurement,value
B1,binding,binds
